PMC10568766
Results are given in words; binding and its absence hold for the method and conditions named. Binding seen in cells or lysates may run through a third protein. Some entries that bind do so weakly or less than the wild type.

Biological target: Signal transducer and activator of transcription 3 (human (endogenous in RMF-EG)), P40763
Assay: co-IP; RMF-EG cells with or without IL-6 (20 ng/ml, 48 h), lysed in RIPA buffer; 1 mg protein with anti-STAT3 antibody overnight at 4 °C, protein A/G beads, three washes with RIPA buffer; blots with anti-NFκB p50, anti-NFκB p65 and anti-STAT3
Conditions: remark: other sources report otherwise

B1: NFκB p50, P19838 1-433 (protein)
chain: MAEDDPYLGRPEQMFHLDPSLTHTIFNPEVFQPQMALPTDGPYLQILEQPKQRGFRFRYVCEGPSHGGLPGASSEKNKKSYPQVKICNYVGPAKVIVQLVTNGKNIHLHAHSLVGKHCEDGICTVTAGPKDMVVGFANLGILHVTKKKVFETLEARMTEACIRGYNPGLLVHPDLAYLQAEGGGDRQLGDREKELIRQAALQQTKEMDLSVVRLMFTAFLPDSTGSFTRRLEPVVSDAIYDSKAPNASNLKIVRMDRTAGCVTGGEEIYLLCDKVQKDDIQIRFYEEEENGGVWEGFGDFSPTDVHRQFAIVFKTPKYKDINITKPASVFVQLRRKSDLETSEPKPFLYYPEIKDKEEVQRKRQKLMPNFSDSFGGGSGAGAGGGGMFGSGGGGGGTGSTGPGYSFPHYGFPTYGGITFHPGTTKSNAGMKHG
B1 was tested, and the binding was “binds”.
